PubChem BioAssay AID504793, Drosophila RNAi Screening Center – 2011
Test: 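Knock-downs allowing continued mitosis even though DNA is damaged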 (primary screen). System: Drosophila S2R+ cells. Reagent: long dsRNA against Drosophila genes, about 0.25 µg dsRNA per well. Timing: 4 days of dsRNA, then 4 hours of drug before read-out. Treatment: doxorubicin 0.5 µM for 4 hours to cause double-strand breaks, in cells also given a low, harmless dose of dsRNA against nbs to sensitise the assay. Measured: 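Per-well count of mitotic cells stained for phospho-histone H3 after doxorubicin exposure, used as mitotic index; counts are raw and not normalised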. Direction: mitotic cells: higher = more cells in mitosis, weaker G2 arrest. Hit rule: 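a call needs confirmation in secondary tests, with other dsRNAs and a check of mitotic timing without damage, not just a high primary count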. Meaning of the calls: active = confirmed in follow-up tests; inactive = not confirmed.
The screen tested about 23,000 reagents; below is a random part of those that have a named target and a result. Of all reagents, 62 (0.27%) got an active call. 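Calls come from follow-up tests whose scores are not deposited, so confirmed genes may have low counts here; counts are not normalised per plate.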 Raw values vary from plate to plate and are shown uncorrected. Names joined by + are all predicted targets of the reagent.

| predicted target | DRSC id | mitotic cells, replicate 1 | mitotic cells, replicate 2 | call |
| --- | --- | --- | --- | --- |
| CG10163 | DRSC09710 | 2 | – | inactive |
| ppk14 | DRSC03238 | 8 | – | inactive |
| tn | DRSC05768 | 5 | – | inactive |
| tn | DRSC06532 | 5 | – | inactive |
| tn | DRSC27711 | 7 | – | inactive |
| Eglp4 | DRSC04438 | 3 | – | inactive |
| Eglp4 | DRSC25991 | 9 | – | inactive |
| CG5321 | DRSC19940 | 5 | – | inactive |
| CG5321 | DRSC22802 | 18 | – | inactive |
| CG5321 | DRSC27348 | 6 | – | inactive |
| mtm | DRSC03576 | 3 | – | inactive |
| CG4679 | DRSC06880 | 5 | – | inactive |
| CG4679 | DRSC28357 | 4 | – | inactive |
| Ir7b | DRSC18009 | 11 | – | inactive |
| dpr18 | DRSC19606 | 9 | – | inactive |
| Polr2B | DRSC16831 | 11 | – | inactive |
| CG42749 | DRSC18091 | 10 | – | inactive |
| CG42749 | DRSC18092 | 8 | – | inactive |
| CG42749 | DRSC29102 | 3 | – | inactive |
| CycK | DRSC03714 | 7 | – | inactive |
| CG5810 | DRSC15880 | 10 | – | inactive |
| CG5810 | DRSC21921 | 11 | – | inactive |
| CG10459 | DRSC05991 | 8 | – | inactive |
| CG10459 | DRSC22092 | 6 | – | inactive |
| Acsx1R + Acsx1L | DRSC24222 | 8 | – | inactive |
| PolE1 | DRSC16112 | 11 | – | inactive |
| PolE1 | DRSC27613 | 1 | – | inactive |
| plu | DRSC07665 | 1 | – | inactive |
| CG33140 | DRSC06030 | 8 | – | inactive |
| CG33140 | DRSC26717 | 5 | – | inactive |
| CG15615 | DRSC06568 | 5 | – | inactive |
| CG15615 | DRSC29555 | 4 | – | inactive |
| CG34125 | DRSC00850 | 7 | – | inactive |
| l(2)05287 | DRSC02151 | 9 | – | inactive |
| l(2)05287 | DRSC02152 | 4 | – | inactive |
| l(2)05287 | DRSC26660 | 12 | – | inactive |
| CG3014 | DRSC15458 | – | – | inactive |
| CG13793 | DRSC02297 | 8 | – | inactive |
| CG13793 | DRSC28252 | 6 | – | inactive |
| cert | DRSC09674 | 1 | – | inactive |
| CG5404 | DRSC15793 | 8 | – | inactive |
| CG5404 | DRSC28832 | 8 | – | inactive |
| CG4646 | DRSC06876 | 6 | – | inactive |
| CG3815 | DRSC18324 | 8 | – | inactive |
| CG3815 | DRSC25830 | 3 | – | inactive |
| Taf11 | DRSC03448 | 2 | – | inactive |
| Naa30A | DRSC23214 | 3 | – | inactive |
| Naa30A | DRSC30080 | 2 | – | inactive |
| Rab14 | DRSC03403 | 6 | – | inactive |
| Rab14 | DRSC28941 | 5 | – | inactive |
| CG30484 | DRSC05457 | 2 | – | inactive |
| PPO3 | DRSC04325 | 8 | – | inactive |
| PPO3 | DRSC24194 | 6 | – | inactive |
| CG8945 | DRSC20129 | 9 | – | inactive |
| CG18178 | DRSC10302 | 2 | – | inactive |
| CG9795 | DRSC12336 | 2 | – | inactive |
| CG9795 | DRSC24244 | 6 | – | inactive |
| Cpr65Au | DRSC22738 | 7 | – | inactive |
| EAChm | DRSC10010 | 4 | – | inactive |
| Kdm4A | DRSC06586 | 7 | – | inactive |
| Kdm4A | DRSC29611 | 7 | – | inactive |
| sip2 | DRSC03154 | 2 | – | inactive |
| CG31800 | DRSC22525 | 8 | – | inactive |
| CG31800 | DRSC29916 | 4 | – | inactive |
| RabX6 | DRSC08223 | 4 | – | inactive |
| CheB38a | DRSC03205 | 1 | 10 | inactive |
| CheB38a | DRSC29814 | 7 | – | inactive |

Continued, starting with the last 12 of the part before.
| predicted target | DRSC id | mitotic cells, replicate 1 | mitotic cells, replicate 2 | call |
| --- | --- | --- | --- | --- |
| CG9795 | DRSC12336 | 2 | – | inactive |
| CG9795 | DRSC24244 | 6 | – | inactive |
| Cpr65Au | DRSC22738 | 7 | – | inactive |
| EAChm | DRSC10010 | 4 | – | inactive |
| Kdm4A | DRSC06586 | 7 | – | inactive |
| Kdm4A | DRSC29611 | 7 | – | inactive |
| sip2 | DRSC03154 | 2 | – | inactive |
| CG31800 | DRSC22525 | 8 | – | inactive |
| CG31800 | DRSC29916 | 4 | – | inactive |
| RabX6 | DRSC08223 | 4 | – | inactive |
| CheB38a | DRSC03205 | 1 | 10 | inactive |
| CheB38a | DRSC29814 | 7 | – | inactive |
| CG13248 | DRSC11696 | 6 | – | inactive |
| CG13248 | DRSC24446 | 6 | – | inactive |
| cyc | DRSC11337 | 16 | – | inactive |
| Etf-QO | DRSC06111 | 4 | – | inactive |
| CG31058 (retired record) | DRSC22987 | 7 | – | inactive |
| CG31058 (retired record) | DRSC25786 | 3 | – | inactive |
| bbc | DRSC06958 | 20 | – | inactive |
| bbc | DRSC22309 | 7 | – | inactive |
| nonC | DRSC18366 | 4 | – | inactive |
| nonC | DRSC18367 | 8 | – | inactive |
| CG14109 | DRSC10112 | 5 | – | inactive |
| CG14109 | DRSC25337 | 6 | – | inactive |
| dpr17 | DRSC12885 | 12 | – | inactive |
| dpr17 | DRSC14958 | 7 | – | inactive |
| Srr | DRSC16382 | 6 | – | inactive |
| Srr | DRSC27485 | 6 | – | inactive |
| CG18814 | DRSC10347 | 2 | – | inactive |
| CG33093 | DRSC15775 | 7 | – | inactive |
| Golgin84 | DRSC15269 | 1 | – | inactive |
| lncRNA:CR32660 | DRSC22965 | 13 | – | inactive |
| lncRNA:CR32660 | DRSC25869 | 7 | – | inactive |
| CG33223 + CG32713 | DRSC28559 | 4 | – | inactive |
| Bcat | DRSC19756 | 12 | – | inactive |
| Bcat | DRSC28324 | 7 | – | inactive |
| lilli | DRSC00708 | 2 | 9 | inactive |
| ChLD3 | DRSC02640 | 3 | – | inactive |
| CenB1A | DRSC16923 | 19 | – | inactive |
| CenB1A | DRSC28028 | 11 | – | inactive |
| CG13594 | DRSC23254 | 8 | – | inactive |
| CG13594 | DRSC27243 | 7 | – | inactive |
| Or45a | DRSC07487 | 7 | – | inactive |
| Or45a | DRSC27527 | 5 | – | inactive |
| VGAT | DRSC07160 | 3 | – | inactive |
| CG32032 | DRSC08961 | 6 | – | inactive |
| CG17193 | DRSC15187 | 9 | – | inactive |
| retm | DRSC03252 | 6 | – | inactive |
| CG31534 (retired record) | DRSC12141 | 1 | – | inactive |
| CG31534 (retired record) | DRSC12289 | 5 | – | inactive |
| CG31534 (retired record) | DRSC27803 | 3 | – | inactive |
| Nop17l | DRSC06556 | 6 | – | inactive |
| Nop17l | DRSC29430 | 3 | – | inactive |
| CG4476 | DRSC10424 | 3 | – | inactive |
| CG4476 | DRSC25362 | 3 | – | inactive |
